In experiment [1] the target is T1, WT-SVIP-mCherry (small VCP-interacting protein, wild type, C-terminal mCherry) (human) (UniProt Q8NHG7).
T1 sequence (chain, myristoylated at Glycine 2; palmitoylated at Cysteines 4 and 7): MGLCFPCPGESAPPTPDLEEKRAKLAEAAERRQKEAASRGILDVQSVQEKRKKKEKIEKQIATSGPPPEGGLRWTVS
Briefly: co-IP; immunoprecipitation of SVIP-mCherry with anti-mCherry from lysates of HEK293T cells co-expressing VCP-GFP and SVIP-mCherry; VCP-GFP detected by blot.

The target of experiment [2] is T2, VIMm-SVIP-mCherry (SVIP with three point mutations in the VCP-interacting motif) (human) (UniProt Q8NHG7).
T2 sequence: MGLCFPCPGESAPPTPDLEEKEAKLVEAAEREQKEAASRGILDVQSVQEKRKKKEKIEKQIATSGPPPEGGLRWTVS
The description is as above.

The target in experiment [3] is WT-VCP-GFP (valosin-containing protein, wild type, C-terminal GFP) (UniProt P55072). The experiment is described as follows: co-IP; immunoprecipitation of VCP-GFP with anti-GFP from lysates of HEK293T cells co-expressing VCP-GFP and SVIP-mCherry; SVIP-mCherry detected by blot.

No constants are given. Whether binding was seen depends on the method and setting. In cells and extracts the contact can be indirect. Some entries that bind do so weakly or less than the wild type.

For “WT-VCP-GFP (valosin-containing protein, wild type, C-terminal GFP) (from UniProt P55072 1-806)”, the binding result in experiment [1] is on record as “binds”; in experiment [2] it was “no binding”.

B1: WT-SVIP-mCherry (small VCP-interacting protein, wild type, C-terminal mCherry) (protein, UniProt Q8NHG7 1-77)
chain: MGLCFPCPGESAPPTPDLEEKRAKLAEAAERRQKEAASRGILDVQSVQEKRKKKEKIEKQIATSGPPPEGGLRWTVS
modifications: myristoylated at Glycine 2; palmitoylated at Cysteines 4 and 7
On to B1, for which the binding entry in experiment [3] was “binds”.

B2: VIMm-SVIP-mCherry (SVIP with three point mutations in the VCP-interacting motif) (protein, UniProt Q8NHG7 1-77)
chain: MGLCFPCPGESAPPTPDLEEKEAKLVEAAEREQKEAASRGILDVQSVQEKRKKKEKIEKQIATSGPPPEGGLRWTVS
Turning to B2, in experiment [3], the binding entry was “no binding”.

The record behind these values is PMC11310202.
